For this assay, the target named is Forkhead box k1 (FOXK1), endogenous (human (endogenous in SW480 and SW620)) (UniProt P85037). The assay is described as follows: co-IP; whole-cell lysates of untransfected SW480 and SW620 cells; immunoprecipitation with anti-FOXK1 antibody (3 ug, 3 h, 4 °C, protein A-agarose), normal rabbit IgG as control; western blot with anti-FHL2 antibody. For orientation: Immunoblotting shows a protein as a band on a membrane.

Chains of the proteins cited; added tags and fusions are not shown.
UniProt P85037: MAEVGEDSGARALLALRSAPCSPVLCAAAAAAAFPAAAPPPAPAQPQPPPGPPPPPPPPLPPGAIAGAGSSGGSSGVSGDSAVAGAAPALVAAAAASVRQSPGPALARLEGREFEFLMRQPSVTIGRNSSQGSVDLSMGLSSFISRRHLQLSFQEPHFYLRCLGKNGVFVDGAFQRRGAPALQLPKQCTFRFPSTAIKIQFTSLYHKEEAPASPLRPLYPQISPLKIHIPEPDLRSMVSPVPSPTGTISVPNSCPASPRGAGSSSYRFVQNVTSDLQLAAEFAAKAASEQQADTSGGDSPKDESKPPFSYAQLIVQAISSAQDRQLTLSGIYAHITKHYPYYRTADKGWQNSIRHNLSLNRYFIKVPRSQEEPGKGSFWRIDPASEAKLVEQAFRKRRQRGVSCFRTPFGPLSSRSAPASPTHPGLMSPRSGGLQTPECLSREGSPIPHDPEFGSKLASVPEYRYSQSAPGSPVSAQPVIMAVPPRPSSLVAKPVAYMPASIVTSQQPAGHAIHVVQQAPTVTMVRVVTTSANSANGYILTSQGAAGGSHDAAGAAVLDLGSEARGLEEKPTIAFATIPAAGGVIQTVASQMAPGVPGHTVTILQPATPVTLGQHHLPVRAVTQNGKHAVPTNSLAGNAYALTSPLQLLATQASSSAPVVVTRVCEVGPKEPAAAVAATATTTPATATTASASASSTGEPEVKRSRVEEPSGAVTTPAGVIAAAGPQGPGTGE

No constants are given. Whether binding was seen depends on the method and setting. In cells and extracts the contact can be indirect. Some entries that bind do so weakly or less than the wild type.

B1: four-and-a-half LIM protein 2 (FHL2), endogenous (protein, UniProt Q14192 1-279)
chain: MTERFDCHHCNESLFGKKYILREESPYCVVCFETLFANTCEECGKPIGCDCKDLSYKDRHWHEACFHCSQCRNSLVDKPFAAKEDQLLCTDCYSNEYSSKCQECKKTIMPGTRKMEYKGSSWHETCFICHRCQQPIGTKSFIPKDNQNFCVPCYEKQHAMQCVQCKKPITTGGVTYREQPWHKECFVCTACRKQLSGQRFTARDDFAYCLNCFCDLYAKKCAGCTNPISGLGGTKYISFEERQWHNDCFNCKKCSLSLVGRGFLTERDDILCPDCGKDI
As for B1, the binding entry is on record as “binds”.
